PubChem BioAssay AID504808 | Drosophila RNAi Screening Center – 2011

Purpose: 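Fly genes required to hold E2F transcription in check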 (primary screen)
Cell system: Drosophila S2 cells
Reagent: long dsRNA against Drosophila genes
Measured: 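Dual luciferase plate measurements; E2F-specific signal taken as firefly over Renilla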
Direction: E2F firefly: higher = more E2F reporter activity; Renilla normaliser: higher = more normaliser reporter signal
Rule for the call: 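a knock-down counted as active when the firefly/Renilla E2F signal rose above 50%, a threshold chosen arbitrarily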
In all, the deposit lists about 21,000 reagents; shown is a random part of those with a known target gene and a result. In the full data, 18 (0.084%) were called active. 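Raw counts without plate normalisation, one of two replicates; the ratio scores behind the calls were not deposited.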 A plus sign joins genes that one reagent is predicted to hit. Not stated in the record: the amount of reagent, the time to read-out.

The first 13 entries, ahead of the listing:
| gene | DRSC id | E2F firefly, rep 1 | Renilla normaliser, rep 1 | Outcome |
| --- | --- | --- | --- | --- |
| l(3)neo43 (lethal (3) neo43) | DRSC14988 | 1.07e5 | 6021 | inactive |
| CG31055 | DRSC13832 | 84789 | 2962 | inactive |
| lok (loki) | DRSC03567 | 96884 | 3318 | inactive |
| SPE (Spatzle-Processing Enzyme) | DRSC15135 | 75621 | 3492 | inactive |
| CG42663 | DRSC06158 | 84860 | 3976 | inactive |
| CG42663 | DRSC06404 | 89936 | 4259 | inactive |
| Nplp3 (Neuropeptide-like precursor 3) | DRSC09944 | 1.68e5 | 8076 | inactive |
| Septin2 (Septin 2) | DRSC16855 | 72370 | 5017 | inactive |
| Ctu2 (Cytosolic thiouridylase subunit 2) | DRSC02024 | 72087 | 5081 | inactive |
| CG6834 | DRSC16125 | 1.42e5 | 7120 | inactive |
| Boh2 (Buddy of Hmr 2) | DRSC02777 | 1.52e5 | 5046 | inactive |
| Ilp2 (Insulin-like peptide 2) | DRSC10968 | 74370 | 2961 | inactive |
| CG14451 | DRSC11708 | 1.37e5 | 6840 | inactive |

Results, from the first entry:
| gene | DRSC id | E2F firefly, rep 1 | Renilla normaliser, rep 1 | Outcome |
| --- | --- | --- | --- | --- |
| l(3)neo43 (lethal (3) neo43) | DRSC14988 | 1.07e5 | 6021 | inactive |
| CG31055 | DRSC13832 | 84789 | 2962 | inactive |
| lok (loki) | DRSC03567 | 96884 | 3318 | inactive |
| SPE (Spatzle-Processing Enzyme) | DRSC15135 | 75621 | 3492 | inactive |
| CG42663 | DRSC06158 | 84860 | 3976 | inactive |
| CG42663 | DRSC06404 | 89936 | 4259 | inactive |
| Nplp3 (Neuropeptide-like precursor 3) | DRSC09944 | 1.68e5 | 8076 | inactive |
| Septin2 (Septin 2) | DRSC16855 | 72370 | 5017 | inactive |
| Ctu2 (Cytosolic thiouridylase subunit 2) | DRSC02024 | 72087 | 5081 | inactive |
| CG6834 | DRSC16125 | 1.42e5 | 7120 | inactive |
| Boh2 (Buddy of Hmr 2) | DRSC02777 | 1.52e5 | 5046 | inactive |
| Ilp2 (Insulin-like peptide 2) | DRSC10968 | 74370 | 2961 | inactive |
| CG14451 | DRSC11708 | 1.37e5 | 6840 | inactive |
| Tl (Toll) | DRSC16885 | 1824 | 988 | inactive |
| yellow-c + CIAPIN1 | DRSC01898 | 1.04e5 | 4492 | inactive |
| Sec6 (Secretory 6) | DRSC06932 | 83145 | 3397 | inactive |
| Sox100B | DRSC15090 | 93556 | 7568 | inactive |
| Sox100B | DRSC16866 | 1.19e5 | 6646 | inactive |
| CG7997 | DRSC07052 | 72787 | 3002 | inactive |
| hbs (hibris) | DRSC07627 | 98321 | 4893 | inactive |
| HDAC11 (Histone deacetylase 11) | DRSC14280 | 1.06e5 | 6320 | inactive |
| CG15236 | DRSC04970 | 1.63e5 | 4966 | inactive |
| Itgbn (Integrin betanu subunit) | DRSC03493 | 1.08e5 | 3834 | inactive |
| Gr22e (Gustatory receptor 22e) | DRSC20912 | 79771 | 2275 | inactive |
| CG10140 | DRSC09704 | 1.27e5 | 6458 | inactive |
| cDIP (Common Dpr-interacting protein) | DRSC14267 | 68350 | 3276 | inactive |
| Evi5 (Ecotropic viral integration site 5) | DRSC19421 | 1.03e5 | 5243 | inactive |
| LRP1 (LDL receptor protein 1) | DRSC07238 | 1.32e5 | 4694 | inactive |
| CG3699 | DRSC18171 | 1.10e5 | 5162 | inactive |
| CG3699 | DRSC18642 | 1.22e5 | 5508 | inactive |
| CG1138 | DRSC12530 | 1.46e5 | 8519 | inactive |
| CecC (Cecropin C) | DRSC16606 | 1.45e5 | 6310 | inactive |
| yip7 (yippee interacting protein 7) | DRSC11410 | 94278 | 3735 | inactive |
| Nha2 (Na[+]/H[+] hydrogen antiporter 2) | DRSC14689 | 1.18e5 | 6135 | inactive |
| Nha2 (Na[+]/H[+] hydrogen antiporter 2) | DRSC15619 | 68204 | 3123 | inactive |
| Nha2 (Na[+]/H[+] hydrogen antiporter 2) | DRSC15623 | 1.11e5 | 6352 | inactive |
| Sin1 (SAPK-interacting protein 1) | DRSC05965 | 191 | 42 | inactive |
| daw (dawdle) | DRSC00479 | 83706 | 3514 | inactive |
| spn-E (spindle E) | DRSC17064 | 1.20e5 | 7007 | inactive |
| Atg8b (Autophagy-related 8b) | DRSC14501 | 1.26e5 | 8175 | inactive |
| CG8960 | DRSC08612 | 70317 | 3422 | inactive |
| GNBP3 (Gram-negative bacteria binding protein 3) | DRSC11170 | 92620 | 3954 | inactive |
| geminin | DRSC04984 | 93185 | 4978 | inactive |
| Usp5 (Ubiquitin specific protease 5) | DRSC08244 | 1.12e5 | 4233 | inactive |
| eag (ether a go-go) | DRSC19067 | 85237 | 3089 | inactive |
| eag (ether a go-go) | DRSC20328 | 2.47e5 | 7252 | inactive |
| CrebA (Cyclic-AMP response element binding protein A) | DRSC11122 | 65153 | 3201 | inactive |
| RabGGTa (Rab geranylgeranyltransferase subunit alpha) | DRSC12189 | 79539 | 3960 | inactive |
| Snrk (SNF related kinase) | DRSC07192 | 171 | 41 | inactive |
| CG18568 | DRSC06768 | 3237 | 205 | inactive |
| Pdf (Pigment-dispersing factor) | DRSC16786 | 51680 | 3003 | inactive |
| CG9512 | DRSC20189 | 7583 | 848 | inactive |
| Pepck1 (Phosphoenolpyruvate carboxykinase 1) | DRSC07505 | 1.42e5 | 5339 | inactive |
| CG17234 | DRSC00490 | 1.60e5 | 5254 | inactive |
| CG10073 | DRSC05961 | 1.34e5 | 4310 | inactive |
| l(2)10685 (lethal (2) 10685) | DRSC00665 | 71883 | 3706 | inactive |
| CG9368 | DRSC11067 | 79981 | 3528 | inactive |
| Galphai (G protein alpha subunit i) | DRSC11168 | 62865 | 3304 | inactive |
| ORMDL (Orosomucoid 1-like) | DRSC11737 | 1.31e5 | 6400 | inactive |
| Or1a (Odorant receptor 1a) | DRSC18689 | 1.20e5 | 5296 | inactive |
| CG13203 | DRSC06327 | 97559 | 3603 | inactive |
| CG9733 | DRSC16549 | 1.22e5 | 6815 | inactive |
| CG14244 | DRSC14739 | 1.22e5 | 6729 | inactive |
| CG17477 | DRSC15239 | 1.15e5 | 5900 | inactive |
| aurB (aurora B) | DRSC03548 | 56115 | 193 | inactive |
| CG12835 (retired record) | DRSC06181 | 1.65e5 | 5096 | inactive |
| CG10431 | DRSC02055 | 98001 | 4233 | inactive |
| ICA69 (Islet cell autoantigen 69 kDa) | DRSC11621 | 84141 | 3838 | inactive |
| CG9265 | DRSC03178 | 1.05e5 | 4685 | inactive |
| CG9265 | DRSC03179 | 95403 | 3893 | inactive |
| CG9570 | DRSC20687 | 1.30e5 | 5658 | inactive |
| CkIIalpha-i3 (CKII-alpha subunit interactor-3) | DRSC08651 | 79729 | 3361 | inactive |
| CG5614 | DRSC15845 | 1.05e5 | 5518 | inactive |
| spen (split ends) | DRSC00839 | 81436 | 3789 | inactive |
| dnc (dunce) | DRSC17758 | 1.00e5 | 5937 | inactive |
| dnc (dunce) | DRSC17759 | 1.12e5 | 5593 | inactive |
| dnc (dunce) | DRSC17911 | 1.31e5 | 6270 | inactive |
| dnc (dunce) | DRSC18763 | 1.10e5 | 5400 | inactive |
| dnc (dunce) | DRSC18764 | 1.10e5 | 4790 | inactive |
| wwk (white walker) | DRSC01941 | 1.03e5 | 3533 | inactive |
| kraken | DRSC00824 | 1.63e5 | 5943 | inactive |
| CR31958 (pseudo) | DRSC00282 | 1.41e5 | 5560 | inactive |
| InR (Insulin-like receptor) | DRSC16717 | 1.47e5 | 7345 | inactive |
| Nopp140 | DRSC11872 | 1.38e5 | 6854 | inactive |
| Tpr2 (Tetratricopeptide repeat protein 2) | DRSC03461 | 81467 | 3446 | inactive |
| spel1 (spellchecker1) | DRSC03617 | 1.05e5 | 4195 | inactive |
| Capr (Caprin) | DRSC10346 | 1.75e5 | 7738 | inactive |
| CG5662 | DRSC19957 | 45952 | 3445 | inactive |
| Vha14-1 (Vacuolar H[+] ATPase 14kD subunit 1) | DRSC07571 | 95261 | 3820 | inactive |
| CG17660 | DRSC00513 | 92402 | 3893 | inactive |
| CG34174 | DRSC00101 | 1.48e5 | 5602 | inactive |
| CG4669 | DRSC10440 | 83401 | 3701 | inactive |
| CG15734 | DRSC19701 | 1.47e5 | 6669 | inactive |
| l(2)k10201 (lethal (2) k10201) | DRSC06439 | 1.48e5 | 5579 | inactive |
| l(2)k10201 (lethal (2) k10201) | DRSC07640 | 1.63e5 | 5836 | inactive |
| ste24c + CG30461 | DRSC05639 | 1.48e5 | 5966 | inactive |
| ste24c + CG30461 | DRSC07316 | 1.48e5 | 4777 | inactive |
| galectin | DRSC00305 | 1.72e5 | 5613 | inactive |
| CG12971 | DRSC11681 | 1.54e5 | 6040 | inactive |
| CG14963 | DRSC08422 | 95793 | 3855 | inactive |
| CG8708 | DRSC07240 | 3100 | 205 | inactive |
| synr (sayonara) | DRSC02369 | 1.69e5 | 5839 | inactive |
| Mer (Merlin) | DRSC20259 | 1.64e5 | 5372 | inactive |
| frac (faulty attraction) | DRSC10867 | 74728 | 3691 | inactive |
| dco (discs overgrown) | DRSC16929 | 1304 | 940 | inactive |
| ara (araucan) | DRSC11322 | 97307 | 5344 | inactive |
| mRpS18B (mitochondrial ribosomal protein S18B) | DRSC02107 | 82215 | 3768 | inactive |
